± gives the standard deviation of the averaged measurements. Some of the results follow.
Compound: Nc1nc2c(ncn2[C@@H]2O[C@H](COP(=O)(O)OP(=O)(O)OP(=O)(O)O)[C@@H](O)[C@H]2O)c(=O)[nH]1 [guanosine triphosphate]
Test: NP40-soluble protein abundance relative to vehicle (solubility fold change) (ratio); higher = more soluble protein in presence of GTP
Method in brief: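 Data come from three independent experiments in which Dounce-homogenised Jurkat crude lysate was treated at eight concentrations from 0.1 to 10 mM. Treatment ran 10 min at room temperature and then 3 min at 37 °C, after which 0.8% NP40 and benzonase were added for 60 min at 4 °C before ultracentrifugation. The supernatant underwent TMT labelling and LC-MS/MS, and vsn-normalised intensities were expressed as fold change against the detergent-processed vehicle in each replicate.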

Sequences of proteins named here, by UniProt entry; tags and fusion partners are left off. A change or cut given only in a name is not applied to a line headed by its entry.
UniProt Q16537, whole entry: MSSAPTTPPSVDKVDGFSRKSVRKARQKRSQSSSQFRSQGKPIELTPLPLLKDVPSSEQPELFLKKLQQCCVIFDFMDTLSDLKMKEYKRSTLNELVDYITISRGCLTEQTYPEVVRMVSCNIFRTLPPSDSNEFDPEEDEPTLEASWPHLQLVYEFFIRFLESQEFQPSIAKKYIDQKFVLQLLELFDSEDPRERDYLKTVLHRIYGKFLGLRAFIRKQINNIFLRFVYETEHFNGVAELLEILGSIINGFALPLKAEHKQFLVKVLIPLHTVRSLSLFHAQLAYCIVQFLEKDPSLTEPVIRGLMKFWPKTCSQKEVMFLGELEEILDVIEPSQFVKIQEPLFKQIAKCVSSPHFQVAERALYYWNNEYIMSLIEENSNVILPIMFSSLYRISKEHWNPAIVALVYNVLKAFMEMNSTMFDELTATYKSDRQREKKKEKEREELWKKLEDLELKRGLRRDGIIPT
UniProt Q15643: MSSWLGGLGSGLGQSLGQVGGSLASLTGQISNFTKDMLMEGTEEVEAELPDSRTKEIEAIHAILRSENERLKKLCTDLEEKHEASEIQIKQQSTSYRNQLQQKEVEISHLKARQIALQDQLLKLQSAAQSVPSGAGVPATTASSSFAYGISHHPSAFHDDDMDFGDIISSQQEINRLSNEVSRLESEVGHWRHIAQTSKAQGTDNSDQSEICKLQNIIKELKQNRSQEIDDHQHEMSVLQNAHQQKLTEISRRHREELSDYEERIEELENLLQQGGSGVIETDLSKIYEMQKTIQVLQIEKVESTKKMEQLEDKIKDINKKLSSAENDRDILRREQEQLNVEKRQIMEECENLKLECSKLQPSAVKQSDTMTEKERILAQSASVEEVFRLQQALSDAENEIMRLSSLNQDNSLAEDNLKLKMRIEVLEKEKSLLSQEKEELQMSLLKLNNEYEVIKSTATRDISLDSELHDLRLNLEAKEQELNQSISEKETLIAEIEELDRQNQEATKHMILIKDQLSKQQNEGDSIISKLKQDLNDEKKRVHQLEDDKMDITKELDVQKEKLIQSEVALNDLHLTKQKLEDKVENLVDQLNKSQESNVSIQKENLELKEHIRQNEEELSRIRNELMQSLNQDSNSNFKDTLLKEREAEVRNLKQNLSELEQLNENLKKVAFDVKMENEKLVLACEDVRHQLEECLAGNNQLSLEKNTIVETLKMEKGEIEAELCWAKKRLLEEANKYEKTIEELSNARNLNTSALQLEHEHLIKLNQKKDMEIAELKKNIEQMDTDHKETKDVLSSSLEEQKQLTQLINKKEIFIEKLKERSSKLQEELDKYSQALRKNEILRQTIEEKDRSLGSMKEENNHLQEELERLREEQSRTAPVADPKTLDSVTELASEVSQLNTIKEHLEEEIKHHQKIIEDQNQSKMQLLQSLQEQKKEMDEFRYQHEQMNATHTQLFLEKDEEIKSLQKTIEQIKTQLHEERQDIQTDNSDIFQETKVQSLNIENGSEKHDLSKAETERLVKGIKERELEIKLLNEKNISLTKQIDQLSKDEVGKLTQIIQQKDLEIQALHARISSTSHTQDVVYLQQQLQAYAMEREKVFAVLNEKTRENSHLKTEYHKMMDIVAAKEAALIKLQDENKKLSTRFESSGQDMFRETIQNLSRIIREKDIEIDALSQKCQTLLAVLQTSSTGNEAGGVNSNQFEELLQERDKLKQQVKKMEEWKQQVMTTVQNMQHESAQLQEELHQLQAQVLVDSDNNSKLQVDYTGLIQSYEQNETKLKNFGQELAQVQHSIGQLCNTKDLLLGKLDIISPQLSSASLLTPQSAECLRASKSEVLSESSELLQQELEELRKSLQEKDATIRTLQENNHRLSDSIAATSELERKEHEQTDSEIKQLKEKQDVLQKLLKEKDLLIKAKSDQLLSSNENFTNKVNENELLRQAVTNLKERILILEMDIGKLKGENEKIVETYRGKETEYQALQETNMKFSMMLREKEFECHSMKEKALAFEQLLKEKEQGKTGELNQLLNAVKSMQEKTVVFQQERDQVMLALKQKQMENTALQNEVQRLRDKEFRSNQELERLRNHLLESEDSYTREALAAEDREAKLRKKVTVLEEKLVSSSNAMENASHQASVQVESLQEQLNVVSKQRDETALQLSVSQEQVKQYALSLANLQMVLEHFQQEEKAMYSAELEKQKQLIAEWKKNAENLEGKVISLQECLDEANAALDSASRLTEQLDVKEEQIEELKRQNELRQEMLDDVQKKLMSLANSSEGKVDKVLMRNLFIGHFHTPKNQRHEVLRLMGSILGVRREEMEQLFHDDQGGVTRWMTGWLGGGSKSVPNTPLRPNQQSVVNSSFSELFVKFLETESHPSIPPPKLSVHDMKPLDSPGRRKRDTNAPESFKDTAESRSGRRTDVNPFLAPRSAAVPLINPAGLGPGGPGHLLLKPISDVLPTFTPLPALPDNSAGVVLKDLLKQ
UniProt Q15652: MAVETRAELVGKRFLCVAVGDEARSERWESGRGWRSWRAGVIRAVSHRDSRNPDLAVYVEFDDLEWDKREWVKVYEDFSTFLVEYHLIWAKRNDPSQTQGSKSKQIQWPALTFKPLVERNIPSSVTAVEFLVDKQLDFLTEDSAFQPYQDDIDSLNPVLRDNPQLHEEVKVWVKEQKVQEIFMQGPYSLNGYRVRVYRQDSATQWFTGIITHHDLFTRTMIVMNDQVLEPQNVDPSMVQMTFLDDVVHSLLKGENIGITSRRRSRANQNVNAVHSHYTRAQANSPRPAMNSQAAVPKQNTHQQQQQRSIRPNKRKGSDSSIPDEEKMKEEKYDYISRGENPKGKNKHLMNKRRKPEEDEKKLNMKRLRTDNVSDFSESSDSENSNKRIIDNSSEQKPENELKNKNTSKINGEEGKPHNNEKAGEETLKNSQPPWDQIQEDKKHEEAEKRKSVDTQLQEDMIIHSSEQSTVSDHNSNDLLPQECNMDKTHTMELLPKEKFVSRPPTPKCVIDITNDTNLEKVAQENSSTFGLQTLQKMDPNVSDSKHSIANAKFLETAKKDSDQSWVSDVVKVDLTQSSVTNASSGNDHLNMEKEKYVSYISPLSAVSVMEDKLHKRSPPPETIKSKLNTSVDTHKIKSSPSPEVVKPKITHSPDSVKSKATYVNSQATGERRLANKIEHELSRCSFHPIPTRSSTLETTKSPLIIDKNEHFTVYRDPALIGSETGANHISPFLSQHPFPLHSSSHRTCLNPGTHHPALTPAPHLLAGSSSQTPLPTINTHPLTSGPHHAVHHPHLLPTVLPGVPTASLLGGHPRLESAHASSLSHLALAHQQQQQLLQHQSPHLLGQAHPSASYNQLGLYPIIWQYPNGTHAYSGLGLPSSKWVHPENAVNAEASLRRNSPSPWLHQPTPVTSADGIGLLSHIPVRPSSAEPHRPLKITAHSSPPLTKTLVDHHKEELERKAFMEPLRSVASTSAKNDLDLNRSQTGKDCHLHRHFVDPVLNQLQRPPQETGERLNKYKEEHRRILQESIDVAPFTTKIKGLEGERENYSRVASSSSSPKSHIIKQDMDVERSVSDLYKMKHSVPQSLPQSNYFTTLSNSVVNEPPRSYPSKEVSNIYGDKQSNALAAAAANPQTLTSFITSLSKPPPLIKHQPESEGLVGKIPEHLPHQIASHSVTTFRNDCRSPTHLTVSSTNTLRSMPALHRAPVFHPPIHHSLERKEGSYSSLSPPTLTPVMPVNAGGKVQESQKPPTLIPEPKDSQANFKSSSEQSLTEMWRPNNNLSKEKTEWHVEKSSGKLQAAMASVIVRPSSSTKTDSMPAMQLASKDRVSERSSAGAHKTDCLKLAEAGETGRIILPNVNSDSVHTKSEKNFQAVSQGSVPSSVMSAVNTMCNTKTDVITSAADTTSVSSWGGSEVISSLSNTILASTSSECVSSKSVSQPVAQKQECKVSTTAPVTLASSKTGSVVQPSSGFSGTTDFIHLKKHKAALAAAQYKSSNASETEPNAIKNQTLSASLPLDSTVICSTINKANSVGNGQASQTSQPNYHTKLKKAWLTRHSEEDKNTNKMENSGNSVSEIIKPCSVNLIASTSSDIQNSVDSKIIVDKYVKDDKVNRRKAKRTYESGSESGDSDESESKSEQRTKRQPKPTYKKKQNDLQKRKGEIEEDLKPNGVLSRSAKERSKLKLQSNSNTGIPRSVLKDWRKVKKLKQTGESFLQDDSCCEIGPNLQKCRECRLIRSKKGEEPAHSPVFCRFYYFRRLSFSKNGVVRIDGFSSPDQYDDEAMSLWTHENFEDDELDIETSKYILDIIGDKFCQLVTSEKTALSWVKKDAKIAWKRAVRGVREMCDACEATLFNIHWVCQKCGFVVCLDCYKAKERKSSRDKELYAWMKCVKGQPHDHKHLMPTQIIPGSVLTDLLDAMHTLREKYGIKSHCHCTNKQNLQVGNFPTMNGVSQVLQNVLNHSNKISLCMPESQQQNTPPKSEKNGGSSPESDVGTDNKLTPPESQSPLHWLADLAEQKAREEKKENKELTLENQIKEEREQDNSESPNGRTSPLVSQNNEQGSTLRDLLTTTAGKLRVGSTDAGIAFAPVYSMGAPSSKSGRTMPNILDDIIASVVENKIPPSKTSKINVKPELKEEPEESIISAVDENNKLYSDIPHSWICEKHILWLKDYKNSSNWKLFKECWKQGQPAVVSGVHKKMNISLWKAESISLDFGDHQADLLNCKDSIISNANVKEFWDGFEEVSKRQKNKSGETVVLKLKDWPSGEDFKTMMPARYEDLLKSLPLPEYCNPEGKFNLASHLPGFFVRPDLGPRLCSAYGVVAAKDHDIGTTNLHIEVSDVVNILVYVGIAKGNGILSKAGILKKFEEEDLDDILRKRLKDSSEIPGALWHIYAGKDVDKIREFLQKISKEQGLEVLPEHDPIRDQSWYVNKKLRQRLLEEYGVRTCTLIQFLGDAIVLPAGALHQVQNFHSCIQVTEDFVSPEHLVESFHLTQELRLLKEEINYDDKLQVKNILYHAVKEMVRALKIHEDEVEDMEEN
UniProt Q3KQU3: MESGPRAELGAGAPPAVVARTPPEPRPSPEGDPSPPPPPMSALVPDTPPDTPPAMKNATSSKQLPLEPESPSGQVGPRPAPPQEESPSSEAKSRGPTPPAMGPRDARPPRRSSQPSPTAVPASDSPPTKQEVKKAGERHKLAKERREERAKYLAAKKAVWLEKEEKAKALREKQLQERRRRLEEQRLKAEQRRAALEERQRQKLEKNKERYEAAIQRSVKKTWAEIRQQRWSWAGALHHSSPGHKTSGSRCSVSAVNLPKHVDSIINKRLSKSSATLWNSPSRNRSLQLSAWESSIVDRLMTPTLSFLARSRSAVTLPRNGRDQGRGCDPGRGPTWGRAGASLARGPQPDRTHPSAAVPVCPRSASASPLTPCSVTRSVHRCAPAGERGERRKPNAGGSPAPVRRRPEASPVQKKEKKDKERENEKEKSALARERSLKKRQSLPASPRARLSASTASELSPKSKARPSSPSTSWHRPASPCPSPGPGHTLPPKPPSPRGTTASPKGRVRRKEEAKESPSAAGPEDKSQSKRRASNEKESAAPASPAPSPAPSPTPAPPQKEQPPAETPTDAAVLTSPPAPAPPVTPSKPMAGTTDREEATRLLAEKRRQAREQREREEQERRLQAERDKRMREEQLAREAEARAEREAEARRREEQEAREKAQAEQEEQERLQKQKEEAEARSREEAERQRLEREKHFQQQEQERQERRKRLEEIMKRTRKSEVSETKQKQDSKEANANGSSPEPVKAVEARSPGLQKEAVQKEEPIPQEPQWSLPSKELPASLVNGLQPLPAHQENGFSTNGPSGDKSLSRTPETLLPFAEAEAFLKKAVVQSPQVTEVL
UniProt Q5JSP0: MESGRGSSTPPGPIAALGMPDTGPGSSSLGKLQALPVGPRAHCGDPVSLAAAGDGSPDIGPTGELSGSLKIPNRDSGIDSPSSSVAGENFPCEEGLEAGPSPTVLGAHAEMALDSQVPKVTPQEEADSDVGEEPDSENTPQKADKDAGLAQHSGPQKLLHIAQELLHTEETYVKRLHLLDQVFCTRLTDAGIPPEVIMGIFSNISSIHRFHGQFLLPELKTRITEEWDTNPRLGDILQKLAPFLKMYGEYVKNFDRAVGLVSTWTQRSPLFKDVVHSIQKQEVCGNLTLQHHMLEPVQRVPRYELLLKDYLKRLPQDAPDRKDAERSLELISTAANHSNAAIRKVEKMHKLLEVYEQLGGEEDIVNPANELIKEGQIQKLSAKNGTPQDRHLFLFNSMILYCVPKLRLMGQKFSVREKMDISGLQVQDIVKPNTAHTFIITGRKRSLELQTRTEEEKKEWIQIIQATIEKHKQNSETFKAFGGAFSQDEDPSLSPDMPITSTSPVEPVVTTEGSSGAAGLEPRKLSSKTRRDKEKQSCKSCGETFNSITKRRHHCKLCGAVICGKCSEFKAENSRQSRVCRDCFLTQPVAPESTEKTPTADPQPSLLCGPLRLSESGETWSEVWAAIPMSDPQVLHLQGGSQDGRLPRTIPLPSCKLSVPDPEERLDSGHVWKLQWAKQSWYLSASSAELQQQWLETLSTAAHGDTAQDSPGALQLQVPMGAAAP

Target | NP40-soluble protein abundance (concentration: 0.1mM) | NP40-soluble protein abundance (concentration: 0.5mM) | NP40-soluble protein abundance (concentration: 1mM) | NP40-soluble protein abundance (concentration: 2mM) | NP40-soluble protein abundance (concentration: 4mM) | NP40-soluble protein abundance (concentration: 6mM) | NP40-soluble protein abundance (concentration: 8mM) | NP40-soluble protein abundance (concentration: 10mM)
UniProt Q16537 and related entries | 0.973 ± 0.07 | 1 ± 0.048 | 0.937 ± 0.013 | 0.908 ± 0.026 | 0.889 ± 0.04 | 0.897 ± 0.025 | 0.901 ± 0.052 | 0.887 ± 0.0097
TRIP11 (UniProt Q15643) | 0.995 ± 0.022 | 0.972 ± 0.052 | 0.994 ± 0.059 | 0.973 ± 0.081 | 0.972 ± 0.082 | 0.955 ± 0.061 | 0.995 ± 0.019 | 0.978 ± 0.062
UniProt Q4G148 and related entries | 1.03 ± 0.021 | 1.01 ± 0.027 | 1.03 ± 0.046 | 1.02 ± 0.039 | 1.07 ± 0.062 | 0.994 ± 0.045 | 0.986 ± 0.12 | 1.04 ± 0.12
TSR1 (UniProt Q2NL82) | 1.01 ± 0.034 | 1.01 ± 0.093 | 0.975 ± 0.15 | 1.01 ± 0.14 | 0.969 ± 0.2 | 0.938 ± 0.2 | 0.931 ± 0.24 | 0.912 ± 0.25
NOM1 (UniProt Q5C9Z4) | 0.988 ± 0.088 | 0.987 ± 0.1 | 1.05 ± 0.069 | 1.09 ± 0.11 | 1.13 ± 0.12 | 1.18 ± 0.093 | 1.24 ± 0.11 | 1.27 ± 0.14
UniProt Q5JTD0 and related entries | 0.95 ± 0.046 | 0.956 ± 0.071 | 1.08 ± 0.05 | 0.993 ± 0.1 | 0.96 ± 0.05 | 1.01 ± 0.13 | 1.04 ± 0.076 | 0.996 ± 0.07
UniProt Q5M775 and related entries | 0.963 ± 0.045 | 1.03 ± 0.13 | 0.926 ± 0.11 | 0.905 ± 0.08 | 0.965 ± 0.073 | 1.04 ± 0.021 | 1.08 ± 0.086 | 1.06 ± 0.054
UniProt Q15652 and related entries | 0.969 ± 0.057 | 0.987 ± 0.047 | 1.06 ± 0.042 | 1.04 ± 0.056 | 1.08 ± 0.038 | 1.05 ± 0.028 | 1.1 ± 0.023 | 1.12 ± 0.051
UniProt Q3MHD2 and related entries | 0.9 ± 0.11 | 0.925 ± 0.09 | 0.924 ± 0.097 | 0.926 ± 0.1 | 0.93 ± 0.086 | 0.952 ± 0.075 | 0.977 ± 0.1 | 1.01 ± 0.1
UniProt Q3KQU3 and related entries | 1.12 ± 0.049 | 1.08 ± 0.048 | 1.24 ± 0.098 | 1.3 ± 0.054 | 1.35 ± 0.17 | 1.34 ± 0.14 | 1.43 ± 0.23 | 1.46 ± 0.25
FGD3 (UniProt Q5JSP0) | 0.98 ± 0.041 | 0.965 ± 0.033 | 0.968 ± 0.044 | 0.925 ± 0.06 | 0.915 ± 0.075 | 0.908 ± 0.07 | 0.951 ± 0.045 | 0.923 ± 0.059
RARS2 (UniProt Q5T160) | 1.02 ± 0.033 | 1.06 ± 0.037 | 0.974 ± 0.024 | 0.998 ± 0.042 | 1.017 ± 0.0049 | 0.934 ± 0.027 | 0.917 ± 0.026 | 0.945 ± 0.043
UniProt Q15286 | 1.04 ± 0.048 | 1.045 ± 0.0073 | 0.959 ± 0.038 | 0.933 ± 0.036 | 0.967 ± 0.034 | 0.939 ± 0.052 | 0.938 ± 0.026 | 0.892 ± 0.059
Q1RLN5 and related entries (UniProt Q8IWW6) | 1 ± 0.046 | 0.953 ± 0.034 | 0.975 ± 0.021 | 0.956 ± 0.03 | 0.995 ± 0.073 | 0.959 ± 0.055 | 1.07 ± 0.06 | 1.03 ± 0.068
UniProt Q14980 and related entries | 0.943 ± 0.07 | 1.01 ± 0.07 | 1.08 ± 0.079 | 1.02 ± 0.12 | 0.999 ± 0.13 | 0.999 ± 0.11 | 1.04 ± 0.11 | 1.02 ± 0.12
